{"source": "patent US20070207992A1", "about": "“Geldanamycin derivatives and method of use thereof” (Board of Trustees of Michigan State University, priority 2006, published 2007)", "origin": "cited, not measured here", "system": "Plasmodium falciparum", "conditions": "growth in human erythrocyte culture; read-out: IC50 of growth inhibition; cited from earlier work", "note": "For at least one compound, name, drawing or mass did not settle the structure."}
{"molecule": "COC1=C2C[C@@H](C)C[C@H](OC)[C@H](O)[C@@H](C)/C=C(\\C)[C@H](OC(N)=O)[C@@H](OC)/C=C\\C=C(/C)C(=O)NC(=CC1=O)C2=O", "note": "[geldanamycin]", "values": [{"measurement": "IC50", "result": 20, "unit": "nM"}]}
